Part of at least one peptide drawing is inferred or uncertain, most often the ends. Where no end group is shown, it is not given here.
Biological target: T1, glucagon receptors (Rattus norvegicus, UniProt P30082)
T1 construct: Liver plasma membranes were prepared from male Sprague-Dawley rats; from tissue; host or cells: rat liver plasma membranes (male Sprague-Dawley rats, Charles River Breeding Laboratories)
Test: Membrane binding assay: competition with 125I-labeled natural glucagon on liver plasma membranes
Conditions: for membrane binding activity (in words): compared with the other compounds of the invention; for MEMBRANE BINDING Relative %: relative binding affinity vs glucagon standard (=100), 125I-glucagon 1.6 nM, rat liver plasma membranes

Protein sequences, listed by entry. Tags and fused reporters are not part of them. Residues count along the entry.
UniProt P30082, 27-485: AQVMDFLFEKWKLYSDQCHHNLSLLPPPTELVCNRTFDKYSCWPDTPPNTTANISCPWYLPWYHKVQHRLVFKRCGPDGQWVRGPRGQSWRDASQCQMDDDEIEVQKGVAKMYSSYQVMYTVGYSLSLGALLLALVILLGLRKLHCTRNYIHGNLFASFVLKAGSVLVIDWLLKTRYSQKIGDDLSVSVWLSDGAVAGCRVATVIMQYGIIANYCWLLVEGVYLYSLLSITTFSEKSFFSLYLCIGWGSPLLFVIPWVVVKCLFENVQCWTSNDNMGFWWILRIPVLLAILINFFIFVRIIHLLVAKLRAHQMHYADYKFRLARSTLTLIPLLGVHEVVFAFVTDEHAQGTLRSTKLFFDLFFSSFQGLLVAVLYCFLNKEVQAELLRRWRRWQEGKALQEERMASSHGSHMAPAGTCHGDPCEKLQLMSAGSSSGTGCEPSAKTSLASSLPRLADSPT

Compound	membrane binding activity (in words)	MEMBRANE BINDING Relative % [%]
SQGTFTSEYSKYLDSKKAQEFVQWLMNT [Compound 3, des-His^1-[Glu^9 -Lys^17,18 Glu^21] glucagon]	somewhat lesser membrane binding activity	10
CSCC[C@H](NC(=O)[C@H](CC(C)C)NC(=O)[C@H](Cc1c[nH]c2ccccc12)NC(=O)[C@H](CCC(N)=O)NC(=O)[C@@H](NC(=O)[C@H](Cc1ccccc1)NC(=O)[C@H](CC(=O)O)NC(=O)[C@H](CCC(N)=O)NC(=O)[C@H](C)NC(=O)[C@H](CCCNC(=N)N)NC(=O)[C@H](CCCNC(=N)N)NC(=O)[C@H](CO)NC(=O)[C@H](CC(=O)O)NC(=O)[C@H](CC(C)C)NC(=O)[C@H](Cc1ccc(O)cc1)NC(=O)[C@H](CCCCN)NC(=O)[C@H](CO)NC(=O)[C@H](Cc1ccc(O)cc1)NC(=O)[C@H](CCC(=O)O)NC(=O)[C@H](CO)NC(=O)[C@@H](NC(=O)[C@H](Cc1ccccc1)NC(=O)[C@@H](NC(=O)CNC(=O)[C@H](CCC(N)=O)NC(=O)[C@@H](N)CO)[C@@H](C)O)[C@@H](C)O)C(C)C)C(=O)N[C@@H](CC(N)=O)C(=O)N[C@H](C(=O)O)[C@@H](C)O [Compound 1, des-His^1-[Glu^9] glucagon]	–	11
CSCC[C@H](NC(=O)[C@H](CC(C)C)NC(=O)[C@H](Cc1c[nH]c2ccccc12)NC(=O)[C@H](CCC(N)=O)NC(=O)[C@@H](NC(=O)[C@H](Cc1ccccc1)NC(=O)[C@H](CC(=O)O)NC(=O)[C@H](CCC(N)=O)NC(=O)[C@H](C)NC(=O)[C@H](CCCNC(=N)N)NC(=O)[C@H](CCCNC(=N)N)NC(=O)[C@H](CO)NC(=O)[C@H](CC(=O)O)NC(=O)[C@H](CC(C)C)NC(=O)[C@H](Cc1ccc(O)cc1)NC(=O)[C@H](CCCCN)NC(=O)[C@H](CO)NC(=O)[C@H](Cc1ccc(O)cc1)NC(=O)[C@H](CCC(=O)O)NC(=O)[C@H](CO)NC(=O)[C@@H](NC(=O)[C@H](Cc1ccccc1)NC(=O)[C@@H](NC(=O)CNC(=O)[C@H](CCC(N)=O)NC(=O)[C@@H](N)CO)[C@@H](C)O)[C@@H](C)O)C(C)C)C(=O)N[C@@H](CC(N)=O)C(=O)N[C@H](C(N)=O)[C@@H](C)O [Compound 2, des-His^1-[Glu^9] glucagon amide]	–	41
SQGTFTSEYSKYLDSKKAQEFVQWLMNT-NH2 [the corresponding amide]	somewhat lesser membrane binding activity	–

Reference: patent US4879273A (The Rockefeller University, priority 1987, dated 1989)
